Taken from: PubChem BioAssay AID1259308 (NCATS, 2017)
This is a random part of about 59,000 deposited reagents. In the full data, about 1,510 (2.6%) got an active call. 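Calls use total luciferase alone and ignore viability, so some active siRNAs may act by altering cell number.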 A number with no mark means an inactive call. Reagents against one gene are numbered here. Further read-outs or replicates are left out here.

- Screen: 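Knock-downs that increase output of a recombinant reporter protein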 (primary screen)
- Cell system: human HEK293 embryonic kidney cells stably expressing firefly luciferase (HEK-CMV-Luc2-Hygro)
- Reagents: single siRNA against human genes, 0.8 pmol siRNA per well
- Timing: 72 h
- Measurement: 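Reporter luminescence and viable-cell signal on separate replicate plates, given as percent of non-targeting control and median/MAD z-scores, plus per-cell luciferase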
- Direction: total luciferase, z-score: higher = more reporter protein produced
- Call rule: 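An siRNA counts as active if its total luciferase robust z-score exceeds 3; genes with two or more such siRNAs out of three were retested with fresh siRNAs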
- Meaning of the calls: active = raised luciferase; inactive = no rise

TSPAN15 (tetraspanin 15) #1 — total luciferase, z-score = 0.185
TSPAN15 (tetraspanin 15) #2 — total luciferase, z-score = 0.262
TSPAN15 (tetraspanin 15) #3 — total luciferase, z-score = 1.91
CNGB1 (cyclic nucleotide gated channel subunit beta 1) #1 — total luciferase, z-score = -0.015
CNGB1 (cyclic nucleotide gated channel subunit beta 1) #2 — total luciferase, z-score = -1.03
CNGB1 (cyclic nucleotide gated channel subunit beta 1) #3 — total luciferase, z-score = 0.365
PRAMEF2 (PRAME family member 2) #1 — total luciferase, z-score = 0.023
PRAMEF2 (PRAME family member 2) #2 — total luciferase, z-score = -0.962
PRAMEF2 (PRAME family member 2) #3 — total luciferase, z-score = 1.61
TMEM270 (transmembrane protein 270) #1 — total luciferase, z-score = 0.168
TMEM270 (transmembrane protein 270) #2 — total luciferase, z-score = -0.579
TMEM270 (transmembrane protein 270) #3 — total luciferase, z-score = -0.083
NUFIP2 (nuclear FMR1 interacting protein 2) #1 — total luciferase, z-score = 0.837
NUFIP2 (nuclear FMR1 interacting protein 2) #2 — total luciferase, z-score = 2.32
NUFIP2 (nuclear FMR1 interacting protein 2) #3 — total luciferase, z-score = -0.889
KRT7 (keratin 7) #1 — total luciferase, z-score = 3.17 (active)
KRT7 (keratin 7) #2 — total luciferase, z-score = -0.541
KRT7 (keratin 7) #3 — total luciferase, z-score = 0.902
CTNS (cystinosin, lysosomal cystine transporter) #1 — total luciferase, z-score = 1.12
CTNS (cystinosin, lysosomal cystine transporter) #2 — total luciferase, z-score = -1.8
CTNS (cystinosin, lysosomal cystine transporter) #3 — total luciferase, z-score = -0.386
AIFM3 (AIF family member 3) #1 — total luciferase, z-score = -2.02
AIFM3 (AIF family member 3) #2 — total luciferase, z-score = 0.987
AIFM3 (AIF family member 3) #3 — total luciferase, z-score = -2.66
BMP10 (bone morphogenetic protein 10) #1 — total luciferase, z-score = 0.155
BMP10 (bone morphogenetic protein 10) #2 — total luciferase, z-score = 2.58
BMP10 (bone morphogenetic protein 10) #3 — total luciferase, z-score = -0.248
GDF6 (growth differentiation factor 6) #1 — total luciferase, z-score = -0.823
GDF6 (growth differentiation factor 6) #2 — total luciferase, z-score = 1.2
GDF6 (growth differentiation factor 6) #3 — total luciferase, z-score = 0.0469
TMEM220 (transmembrane protein 220) #1 — total luciferase, z-score = -2.17
TMEM220 (transmembrane protein 220) #2 — total luciferase, z-score = -0.187
TMEM220 (transmembrane protein 220) #3 — total luciferase, z-score = -0.543
OR1A2 (olfactory receptor family 1 subfamily A member 2) #1 — total luciferase, z-score = 0.826
OR1A2 (olfactory receptor family 1 subfamily A member 2) #2 — total luciferase, z-score = -0.0185
OR1A2 (olfactory receptor family 1 subfamily A member 2) #3 — total luciferase, z-score = 1.37
SNAP25 (synaptosome associated protein 25) #1 — total luciferase, z-score = -1.35
SNAP25 (synaptosome associated protein 25) #2 — total luciferase, z-score = -0.331
SNAP25 (synaptosome associated protein 25) #3 — total luciferase, z-score = 0.915
AKT3 (AKT serine/threonine kinase 3) #1 — total luciferase, z-score = 1.97
AKT3 (AKT serine/threonine kinase 3) #2 — total luciferase, z-score = 0.187
AKT3 (AKT serine/threonine kinase 3) #3 — total luciferase, z-score = 1.44

2 entries from above, reformatted.
gene knocked down,siRNA no.,"total luciferase, z-score"
NUFIP2 (nuclear FMR1 interacting protein 2),1,0.837
NUFIP2 (nuclear FMR1 interacting protein 2),2,2.32
